Experiment [1] concerns the target GFP-PICALM NAAIRS mutant PTTAWN (aa 584–589 mutated to NAAIRS) (human) (UniProt Q13492). The experiment is described as follows: co-IP; lysates of transfected HEK293T cells (HEK293 in the legends) 48 h after transfection; anti-GFP antibody overnight at 4°C, Protein-G-Sepharose 2 hr at 4°C, three washes with lysis buffer; immunoblot with anti-clathrin heavy chain antibody. (Immunoblotting shows a protein as a band on a membrane.)

By UniProt entry, the sequences of proteins in these tests, tags left out. Where a name states a change or a piece, a line headed by the entry shows the natural chain unless it says otherwise.
UniProt Q13492: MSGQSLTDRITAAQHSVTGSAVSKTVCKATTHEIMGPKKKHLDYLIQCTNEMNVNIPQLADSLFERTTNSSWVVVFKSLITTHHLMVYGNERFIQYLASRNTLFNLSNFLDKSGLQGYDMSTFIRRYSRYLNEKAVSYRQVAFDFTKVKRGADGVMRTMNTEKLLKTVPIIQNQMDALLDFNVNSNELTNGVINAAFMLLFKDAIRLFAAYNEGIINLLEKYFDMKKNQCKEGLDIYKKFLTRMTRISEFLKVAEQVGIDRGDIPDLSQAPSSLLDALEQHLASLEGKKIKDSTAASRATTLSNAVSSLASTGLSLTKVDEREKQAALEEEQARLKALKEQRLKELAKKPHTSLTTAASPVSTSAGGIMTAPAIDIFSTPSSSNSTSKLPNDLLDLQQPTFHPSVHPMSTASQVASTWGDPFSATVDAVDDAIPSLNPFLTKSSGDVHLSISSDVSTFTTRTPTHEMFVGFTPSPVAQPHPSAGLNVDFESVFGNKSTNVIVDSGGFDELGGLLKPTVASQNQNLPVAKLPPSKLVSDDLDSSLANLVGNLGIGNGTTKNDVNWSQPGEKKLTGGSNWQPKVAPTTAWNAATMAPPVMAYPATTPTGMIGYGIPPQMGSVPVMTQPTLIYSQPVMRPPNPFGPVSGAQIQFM
UniProt Q00610: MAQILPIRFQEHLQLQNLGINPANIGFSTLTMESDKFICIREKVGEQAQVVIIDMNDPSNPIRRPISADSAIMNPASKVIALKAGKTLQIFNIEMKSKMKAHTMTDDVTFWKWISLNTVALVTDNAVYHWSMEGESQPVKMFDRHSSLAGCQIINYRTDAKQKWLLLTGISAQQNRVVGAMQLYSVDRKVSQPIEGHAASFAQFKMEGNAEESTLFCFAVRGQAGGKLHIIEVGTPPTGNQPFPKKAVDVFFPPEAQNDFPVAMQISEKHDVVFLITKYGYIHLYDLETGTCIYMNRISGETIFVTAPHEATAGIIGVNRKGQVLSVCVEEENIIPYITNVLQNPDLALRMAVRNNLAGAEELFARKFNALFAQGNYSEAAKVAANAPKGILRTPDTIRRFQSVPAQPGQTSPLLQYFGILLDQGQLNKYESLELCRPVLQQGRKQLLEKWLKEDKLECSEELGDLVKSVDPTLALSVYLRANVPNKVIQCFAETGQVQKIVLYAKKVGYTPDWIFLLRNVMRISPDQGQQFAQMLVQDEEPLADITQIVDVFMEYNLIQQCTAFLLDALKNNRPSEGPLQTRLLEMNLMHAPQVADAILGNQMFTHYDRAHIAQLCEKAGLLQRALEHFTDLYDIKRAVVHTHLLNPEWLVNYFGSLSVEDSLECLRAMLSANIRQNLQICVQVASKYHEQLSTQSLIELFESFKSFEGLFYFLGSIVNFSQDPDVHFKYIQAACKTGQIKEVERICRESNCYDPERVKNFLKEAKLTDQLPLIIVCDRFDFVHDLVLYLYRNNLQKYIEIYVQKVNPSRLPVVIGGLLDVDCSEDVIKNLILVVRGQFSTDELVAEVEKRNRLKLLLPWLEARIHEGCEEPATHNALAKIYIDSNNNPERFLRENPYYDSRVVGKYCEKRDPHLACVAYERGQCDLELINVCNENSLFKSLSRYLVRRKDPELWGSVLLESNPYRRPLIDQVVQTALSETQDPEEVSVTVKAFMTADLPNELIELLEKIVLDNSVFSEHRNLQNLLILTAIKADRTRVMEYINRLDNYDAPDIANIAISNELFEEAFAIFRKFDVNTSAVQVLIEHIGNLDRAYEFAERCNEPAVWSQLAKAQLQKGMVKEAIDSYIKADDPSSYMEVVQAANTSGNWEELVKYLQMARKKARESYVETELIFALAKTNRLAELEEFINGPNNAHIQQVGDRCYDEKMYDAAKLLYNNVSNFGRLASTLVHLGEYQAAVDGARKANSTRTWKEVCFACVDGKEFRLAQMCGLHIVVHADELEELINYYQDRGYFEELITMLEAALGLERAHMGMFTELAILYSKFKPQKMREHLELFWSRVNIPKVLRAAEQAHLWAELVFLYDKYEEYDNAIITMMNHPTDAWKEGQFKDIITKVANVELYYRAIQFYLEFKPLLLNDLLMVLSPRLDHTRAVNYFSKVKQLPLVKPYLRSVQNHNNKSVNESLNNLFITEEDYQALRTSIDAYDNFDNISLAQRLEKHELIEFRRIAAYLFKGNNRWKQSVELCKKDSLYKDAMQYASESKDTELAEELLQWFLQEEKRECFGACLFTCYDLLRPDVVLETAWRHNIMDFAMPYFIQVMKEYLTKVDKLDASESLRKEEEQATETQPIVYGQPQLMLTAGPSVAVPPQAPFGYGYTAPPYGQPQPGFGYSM

Experiment [2] addresses GFP-PICALM:256–652 (amino-terminally truncated PICALM) (human) (UniProt Q13492). The description is as above.

Results are given in words; binding and its absence hold for the method and conditions named. In cells and extracts the contact can be indirect. Binding can be weak; no strength is given.

Consider “clathrin heavy chain (from UniProt Q00610 1-1675)”, for which the binding entry in experiment [1] and in experiment [2] was “binds” in each case.

These data come from article PMC3431333.
